This note sets out measurements from article PMC5695913.

Amino acid sequences for entries named in this document (tags omitted).
UniProt P11166: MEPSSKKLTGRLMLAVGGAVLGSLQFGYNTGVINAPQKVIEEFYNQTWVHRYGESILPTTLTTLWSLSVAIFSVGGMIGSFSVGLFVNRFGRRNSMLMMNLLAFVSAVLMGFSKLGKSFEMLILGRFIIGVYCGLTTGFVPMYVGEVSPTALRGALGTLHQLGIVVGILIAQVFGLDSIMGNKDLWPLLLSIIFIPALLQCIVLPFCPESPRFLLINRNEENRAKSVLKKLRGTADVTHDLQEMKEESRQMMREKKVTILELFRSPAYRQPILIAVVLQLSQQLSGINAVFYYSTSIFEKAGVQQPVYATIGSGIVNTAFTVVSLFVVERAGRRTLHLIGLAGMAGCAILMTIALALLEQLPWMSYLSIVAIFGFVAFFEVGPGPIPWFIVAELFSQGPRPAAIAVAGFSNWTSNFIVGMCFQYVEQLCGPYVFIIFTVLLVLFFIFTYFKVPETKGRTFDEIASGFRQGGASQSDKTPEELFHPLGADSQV

Assay [1] concerns the target SFB-tagged SNX27 Δ65–83 mutant (UniProt Q8K4V4). Kind of assay: co-IP; SNX27 wild type and mutants of Figures S5A, S5B, S6B, S6D and S7C; legends not shown; the text speaks of immunoprecipitation data using SNX27 mutants.
The target of assay [2] is SFB-tagged SNX27 Δ57–83 mutant (UniProt Q8K4V4). Described as above.

Results are given in words; binding and its absence hold for the method and conditions named. In cells and extracts the contact can be indirect. Some results given as binding are weak or reduced against the parent protein; the word gives no strength.

For “glucose transporter 1 (GLUT1) (from UniProt P11166 1-492)”, the binding result in assay [1] and in assay [2] was “binds” in each case.
